Reference: article PMC6373471
No constants are given. Whether binding was seen depends on the method and setting. Binding seen in cells or lysates may run through a third protein. A yes stands for co-enrichment or nearness to the bait. Other partners may have been found.

By UniProt entry, the sequences of proteins in these tests, tags left out. Where a name states a change or a piece, a line headed by the entry shows the natural chain unless it says otherwise.
UniProt Q9SQI2: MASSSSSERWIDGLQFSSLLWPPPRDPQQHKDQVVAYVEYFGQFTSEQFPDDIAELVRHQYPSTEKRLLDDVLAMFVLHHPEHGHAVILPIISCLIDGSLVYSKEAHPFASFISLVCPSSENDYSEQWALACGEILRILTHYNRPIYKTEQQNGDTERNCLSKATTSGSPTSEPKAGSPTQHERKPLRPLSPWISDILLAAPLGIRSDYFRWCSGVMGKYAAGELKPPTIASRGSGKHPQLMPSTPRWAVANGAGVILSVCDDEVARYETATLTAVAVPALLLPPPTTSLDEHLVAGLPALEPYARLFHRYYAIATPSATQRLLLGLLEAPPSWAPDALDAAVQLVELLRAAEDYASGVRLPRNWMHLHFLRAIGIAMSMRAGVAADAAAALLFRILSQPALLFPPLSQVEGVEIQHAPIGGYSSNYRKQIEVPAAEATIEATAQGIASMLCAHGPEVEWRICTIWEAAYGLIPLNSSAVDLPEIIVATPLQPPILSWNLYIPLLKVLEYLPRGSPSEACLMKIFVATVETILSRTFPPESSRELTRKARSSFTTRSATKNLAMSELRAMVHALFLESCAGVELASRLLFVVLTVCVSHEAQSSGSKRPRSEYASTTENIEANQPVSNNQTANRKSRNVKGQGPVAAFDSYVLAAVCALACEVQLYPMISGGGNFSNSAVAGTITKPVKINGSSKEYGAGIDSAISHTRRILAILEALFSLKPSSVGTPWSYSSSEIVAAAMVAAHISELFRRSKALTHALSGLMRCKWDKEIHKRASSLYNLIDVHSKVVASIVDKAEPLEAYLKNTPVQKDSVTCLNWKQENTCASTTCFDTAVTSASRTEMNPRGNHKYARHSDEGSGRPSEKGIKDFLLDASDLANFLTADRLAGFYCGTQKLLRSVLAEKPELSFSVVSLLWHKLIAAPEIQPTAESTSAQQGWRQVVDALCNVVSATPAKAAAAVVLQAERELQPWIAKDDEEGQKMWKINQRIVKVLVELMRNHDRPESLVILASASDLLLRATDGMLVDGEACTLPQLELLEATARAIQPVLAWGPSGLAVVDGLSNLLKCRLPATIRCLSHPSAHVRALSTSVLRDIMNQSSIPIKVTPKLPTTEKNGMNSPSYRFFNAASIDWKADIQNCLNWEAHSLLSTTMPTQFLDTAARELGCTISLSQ
UniProt P28769: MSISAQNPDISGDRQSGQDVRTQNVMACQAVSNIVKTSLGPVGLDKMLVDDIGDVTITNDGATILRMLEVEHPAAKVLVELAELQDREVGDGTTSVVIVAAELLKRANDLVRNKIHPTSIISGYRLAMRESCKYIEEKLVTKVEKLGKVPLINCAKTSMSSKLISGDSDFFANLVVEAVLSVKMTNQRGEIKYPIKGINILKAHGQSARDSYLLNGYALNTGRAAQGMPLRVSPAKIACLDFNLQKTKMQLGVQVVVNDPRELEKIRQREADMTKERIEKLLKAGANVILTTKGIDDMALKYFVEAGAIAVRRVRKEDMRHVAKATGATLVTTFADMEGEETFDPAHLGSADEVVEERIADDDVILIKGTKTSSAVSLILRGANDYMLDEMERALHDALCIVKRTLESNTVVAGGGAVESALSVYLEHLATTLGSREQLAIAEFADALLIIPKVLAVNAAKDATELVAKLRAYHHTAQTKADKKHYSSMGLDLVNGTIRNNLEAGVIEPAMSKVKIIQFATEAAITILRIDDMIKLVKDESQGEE
UniProt Q9C4Z6: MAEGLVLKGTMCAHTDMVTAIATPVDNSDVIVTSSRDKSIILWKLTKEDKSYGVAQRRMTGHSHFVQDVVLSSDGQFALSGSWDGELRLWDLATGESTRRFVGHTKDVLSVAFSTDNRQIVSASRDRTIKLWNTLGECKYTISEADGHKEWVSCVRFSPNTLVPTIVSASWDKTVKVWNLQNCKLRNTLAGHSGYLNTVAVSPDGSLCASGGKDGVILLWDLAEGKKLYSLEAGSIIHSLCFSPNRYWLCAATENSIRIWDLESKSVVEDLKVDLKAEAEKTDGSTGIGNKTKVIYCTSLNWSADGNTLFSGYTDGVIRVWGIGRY
UniProt P0DH91: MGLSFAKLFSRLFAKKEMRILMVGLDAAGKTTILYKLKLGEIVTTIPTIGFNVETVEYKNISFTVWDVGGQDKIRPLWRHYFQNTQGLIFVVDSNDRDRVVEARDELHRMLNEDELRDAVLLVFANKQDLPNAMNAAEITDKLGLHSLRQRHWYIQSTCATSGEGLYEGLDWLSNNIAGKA
UniProt O80576: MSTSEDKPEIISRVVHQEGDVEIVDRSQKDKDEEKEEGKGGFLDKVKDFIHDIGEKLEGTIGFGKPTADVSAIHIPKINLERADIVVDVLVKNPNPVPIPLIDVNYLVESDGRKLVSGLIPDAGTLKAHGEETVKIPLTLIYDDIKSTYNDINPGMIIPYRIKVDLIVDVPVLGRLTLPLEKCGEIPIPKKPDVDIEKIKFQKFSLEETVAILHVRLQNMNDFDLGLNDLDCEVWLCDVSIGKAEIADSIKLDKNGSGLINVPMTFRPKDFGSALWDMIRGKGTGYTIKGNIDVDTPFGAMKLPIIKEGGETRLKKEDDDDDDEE
UniProt Q9C9W9: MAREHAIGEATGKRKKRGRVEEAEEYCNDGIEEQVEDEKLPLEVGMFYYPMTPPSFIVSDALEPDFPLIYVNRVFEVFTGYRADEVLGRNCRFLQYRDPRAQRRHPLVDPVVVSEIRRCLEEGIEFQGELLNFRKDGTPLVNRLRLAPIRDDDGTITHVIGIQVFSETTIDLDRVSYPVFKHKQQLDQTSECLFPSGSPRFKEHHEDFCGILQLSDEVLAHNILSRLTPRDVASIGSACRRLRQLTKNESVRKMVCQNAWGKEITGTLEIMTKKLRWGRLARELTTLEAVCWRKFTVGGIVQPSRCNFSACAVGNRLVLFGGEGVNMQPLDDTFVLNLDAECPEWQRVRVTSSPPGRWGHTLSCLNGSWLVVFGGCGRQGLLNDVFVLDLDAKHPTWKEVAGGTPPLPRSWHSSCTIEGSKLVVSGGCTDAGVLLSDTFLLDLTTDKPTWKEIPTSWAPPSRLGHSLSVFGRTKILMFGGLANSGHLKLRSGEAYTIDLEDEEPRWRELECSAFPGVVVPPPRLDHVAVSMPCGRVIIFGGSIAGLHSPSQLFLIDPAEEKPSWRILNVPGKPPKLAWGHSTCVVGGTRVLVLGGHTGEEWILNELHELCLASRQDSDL
UniProt Q96250: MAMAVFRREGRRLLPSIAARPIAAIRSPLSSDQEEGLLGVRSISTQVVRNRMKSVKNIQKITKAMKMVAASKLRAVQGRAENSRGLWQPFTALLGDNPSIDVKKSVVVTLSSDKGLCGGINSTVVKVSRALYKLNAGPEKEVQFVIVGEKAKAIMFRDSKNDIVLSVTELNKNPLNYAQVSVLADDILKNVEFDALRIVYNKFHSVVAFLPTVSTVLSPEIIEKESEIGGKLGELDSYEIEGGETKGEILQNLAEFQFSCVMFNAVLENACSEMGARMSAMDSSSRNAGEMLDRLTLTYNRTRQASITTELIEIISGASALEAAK
UniProt Q9M888: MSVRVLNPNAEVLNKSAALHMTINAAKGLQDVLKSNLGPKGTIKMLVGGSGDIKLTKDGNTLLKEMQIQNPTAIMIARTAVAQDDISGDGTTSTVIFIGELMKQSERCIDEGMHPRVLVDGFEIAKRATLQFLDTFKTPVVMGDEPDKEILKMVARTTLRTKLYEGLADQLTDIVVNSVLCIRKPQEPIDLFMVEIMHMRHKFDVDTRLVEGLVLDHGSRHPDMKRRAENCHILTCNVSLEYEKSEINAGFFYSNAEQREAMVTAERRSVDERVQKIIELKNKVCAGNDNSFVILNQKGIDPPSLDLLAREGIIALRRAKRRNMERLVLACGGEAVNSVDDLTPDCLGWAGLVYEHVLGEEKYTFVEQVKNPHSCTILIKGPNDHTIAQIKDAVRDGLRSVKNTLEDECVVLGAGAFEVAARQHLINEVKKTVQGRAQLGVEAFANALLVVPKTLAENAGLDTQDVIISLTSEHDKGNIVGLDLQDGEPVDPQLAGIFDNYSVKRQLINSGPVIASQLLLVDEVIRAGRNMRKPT
UniProt Q94BT6: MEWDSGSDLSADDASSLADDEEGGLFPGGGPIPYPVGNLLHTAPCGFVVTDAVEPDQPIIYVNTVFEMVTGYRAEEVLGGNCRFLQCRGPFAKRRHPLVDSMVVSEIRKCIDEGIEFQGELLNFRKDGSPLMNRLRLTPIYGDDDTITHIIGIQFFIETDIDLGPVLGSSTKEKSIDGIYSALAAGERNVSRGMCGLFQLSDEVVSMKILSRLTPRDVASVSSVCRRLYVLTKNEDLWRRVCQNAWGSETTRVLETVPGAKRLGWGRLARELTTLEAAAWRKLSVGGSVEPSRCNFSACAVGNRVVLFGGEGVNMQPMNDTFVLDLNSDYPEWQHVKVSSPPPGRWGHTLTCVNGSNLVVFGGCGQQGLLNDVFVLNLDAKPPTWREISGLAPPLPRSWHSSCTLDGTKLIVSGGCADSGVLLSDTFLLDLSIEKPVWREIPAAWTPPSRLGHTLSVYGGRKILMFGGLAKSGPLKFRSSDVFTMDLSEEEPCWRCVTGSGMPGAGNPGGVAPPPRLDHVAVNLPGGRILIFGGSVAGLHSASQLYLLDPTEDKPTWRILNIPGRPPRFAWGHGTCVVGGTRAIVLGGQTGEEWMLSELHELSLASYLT
UniProt Q8W420: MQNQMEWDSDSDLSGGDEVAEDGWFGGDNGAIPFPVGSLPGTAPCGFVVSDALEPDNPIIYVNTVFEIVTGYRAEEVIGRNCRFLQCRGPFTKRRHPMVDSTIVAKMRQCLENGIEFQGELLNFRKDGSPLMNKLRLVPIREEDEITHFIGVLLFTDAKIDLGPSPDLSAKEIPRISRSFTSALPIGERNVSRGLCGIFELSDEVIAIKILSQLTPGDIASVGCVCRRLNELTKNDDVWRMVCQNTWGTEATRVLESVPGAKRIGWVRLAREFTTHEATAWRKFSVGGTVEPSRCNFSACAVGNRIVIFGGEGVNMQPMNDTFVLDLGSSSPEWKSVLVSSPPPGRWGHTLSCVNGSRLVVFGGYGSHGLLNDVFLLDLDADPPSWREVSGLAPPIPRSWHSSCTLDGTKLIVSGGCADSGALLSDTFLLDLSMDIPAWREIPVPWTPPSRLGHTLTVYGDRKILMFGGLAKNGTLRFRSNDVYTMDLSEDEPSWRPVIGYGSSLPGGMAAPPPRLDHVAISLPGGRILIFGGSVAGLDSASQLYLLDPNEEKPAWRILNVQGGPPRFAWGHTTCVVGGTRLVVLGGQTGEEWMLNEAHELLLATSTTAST
UniProt P41376: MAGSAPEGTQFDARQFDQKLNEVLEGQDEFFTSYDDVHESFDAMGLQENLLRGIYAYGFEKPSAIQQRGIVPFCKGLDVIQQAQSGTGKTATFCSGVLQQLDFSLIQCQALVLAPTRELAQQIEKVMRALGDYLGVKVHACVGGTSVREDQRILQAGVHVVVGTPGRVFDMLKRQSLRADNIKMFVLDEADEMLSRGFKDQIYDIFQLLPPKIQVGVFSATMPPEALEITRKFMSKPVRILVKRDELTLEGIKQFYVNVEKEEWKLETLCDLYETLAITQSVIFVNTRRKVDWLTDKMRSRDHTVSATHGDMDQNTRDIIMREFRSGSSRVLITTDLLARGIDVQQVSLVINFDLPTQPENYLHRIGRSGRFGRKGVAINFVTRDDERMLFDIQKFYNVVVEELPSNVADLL
UniProt Q9LT08: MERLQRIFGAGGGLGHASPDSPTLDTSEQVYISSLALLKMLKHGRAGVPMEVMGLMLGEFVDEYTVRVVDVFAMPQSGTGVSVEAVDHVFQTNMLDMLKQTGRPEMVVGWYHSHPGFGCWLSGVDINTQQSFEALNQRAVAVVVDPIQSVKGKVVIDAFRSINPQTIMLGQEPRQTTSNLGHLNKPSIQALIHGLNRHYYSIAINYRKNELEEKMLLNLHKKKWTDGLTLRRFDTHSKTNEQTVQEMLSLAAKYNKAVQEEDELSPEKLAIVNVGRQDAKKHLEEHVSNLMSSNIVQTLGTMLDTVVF
UniProt F4HVR7: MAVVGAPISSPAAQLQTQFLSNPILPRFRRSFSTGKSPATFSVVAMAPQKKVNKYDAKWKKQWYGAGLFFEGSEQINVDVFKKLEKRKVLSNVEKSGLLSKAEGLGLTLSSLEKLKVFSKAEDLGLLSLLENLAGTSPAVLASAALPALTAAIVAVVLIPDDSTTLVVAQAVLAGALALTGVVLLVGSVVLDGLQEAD
UniProt O24456: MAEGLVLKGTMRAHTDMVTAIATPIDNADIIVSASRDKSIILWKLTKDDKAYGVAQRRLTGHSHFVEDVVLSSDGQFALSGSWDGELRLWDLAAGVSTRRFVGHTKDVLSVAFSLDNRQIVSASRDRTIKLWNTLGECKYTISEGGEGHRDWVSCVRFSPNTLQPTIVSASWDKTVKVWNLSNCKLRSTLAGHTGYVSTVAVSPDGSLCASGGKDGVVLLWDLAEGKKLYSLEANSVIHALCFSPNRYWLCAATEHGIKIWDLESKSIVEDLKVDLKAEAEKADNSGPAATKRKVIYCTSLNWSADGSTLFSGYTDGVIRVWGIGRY
UniProt P56808: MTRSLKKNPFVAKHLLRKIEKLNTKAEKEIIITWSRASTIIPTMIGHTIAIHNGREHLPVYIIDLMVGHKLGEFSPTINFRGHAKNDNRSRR

Experiments:
[1] = biological target: GIGANTEA with C-terminal 3xFLAG-6xHis tag (GI‐3F6H) (Arabidopsis thaliana) (UniProt Q9SQI2); assay: affinity purification with mass spectrometry; time series study: tandem affinity purification (FLAG and His tags) of GI-3F6H from rosettes grown in short days, six time points plus ZT31; on-bead digest, label-free quantitation; WT plants as control
[2] = biological target: GIGANTEA with C-terminal 3xFLAG-6xHis tag (GI‐3F6H) (Arabidopsis thaliana) (UniProt Q9SQI2); assay: affinity purification with mass spectrometry; qualitative study: tandem affinity purification (FLAG and His tags) of GI-3F6H from plants grown in long days and harvested at ZT13 on day 14; RIPA or SII buffer; on-bead digest, peptide counts; WT plants as control
[3] = biological target: GIGANTEA with C-terminal 3xFLAG-6xHis tag (GI‐3F6H) (Arabidopsis thaliana) (UniProt Q9SQI2); assay: affinity purification with mass spectrometry; preliminary study: tandem affinity purification of GI-3F6H, silver-stained gel, LC-MS of excised bands; plants harvested at ZT8

binding [1] | binding [2] | binding [3] | Substance
binds |  |  | PHOT2 (from UniProt P93025 1-915)
binds | binds |  | TCP‐1 (AT3G20050) (from UniProt P28769 1-545)
binds |  |  | RACK1B_AT (from UniProt Q9C4Z6 1-326)
binds |  |  | AAA‐type ATPase (AT1G45000.1; AT4G27680) (from UniProt Q9MAK9)
binds |  |  | CPN60A (from UniProt P21238)
 | binds |  | ARF2‐B (from UniProt P0DH91 1-181)
 | binds |  | EFTu/EF1‐A (from UniProt Q8GTY0 1-449)
 | binds |  | At2G44060 (from UniProt O80576)
binds | binds | binds | FLAVIN‐BINDING, KELCH REPEAT, F‐BOX 1 (FKF1) (from UniProt Q9C9W9 1-619)
binds |  |  | ATP3 (from UniProt Q96250)
binds |  |  | TCP‐1/cpn60 chaperonin (AT3G02530) (from UniProt Q9M888 1-535)
binds | binds | binds | ZEITLUPE (ZTL) (from UniProt Q94BT6 1-609)
binds | binds | binds | LIGHT KELCH PROTEIN 2 (LKP2) (from UniProt Q8W420 1-611)
 | binds |  | EIF4A1 (from UniProt P41376 1-412)
binds |  |  | TCP‐1/cpn60 chaperonin (AT3G13470) (from UniProt Q9LJE4 51-596)
 | binds |  | CHC2 (from UniProt Q0WLB5 1-1703)
 | binds |  | AT5G23540 (from UniProt Q9LT08 1-308)
binds |  |  | DUF1118 (from UniProt F4HVR7)
binds |  |  | DEA(D/H)‐box RNA helicase (AT1G72730) (from UniProt Q9CAI7 1-414)
binds |  |  | RACK1A (from UniProt O24456 1-327)
 | binds |  | CALS12 (from UniProt Q9ZT82 1-1780)
binds |  | binds | TPR4 (from UniProt Q8VZ31)
binds |  |  | RPS19 (from UniProt P56808 1-92)
